{
  "source": "the supplement of paper PMC4604168 (melanoma cell lines)",
  "note": "The other results are listed elsewhere or left out. Single values are uncertain, as repeats are few or missing.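 Cells were imaged in 1,536-well plates, and nuclei stained with an antibody against cleaved PARP were counted against all DNA-stained nuclei to give the apoptosis fraction. Screening doses were chosen to leave most cells alive, and resting and induced cleaved-PARP levels differ strongly between cell lines.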",
  "data": [
    {"test_system": "A101D", "assay": "cleaved PARP positive nuclei fraction relative to DMSO control; melanoma cells; higher = more apoptosis", "details": "library dose: low library concentration; 72 h", "units": {"cleaved PARP positive nuclei fraction": "%"}, "values": [
      {"smiles": "N.N.[Cl][Pt][Cl]", "note": "[cisplatin] + Cn1nnc2c(C(N)=O)ncn2c1=O [temozolomide] (first compound 1.6 µM, partner dose 2 µM)", "cleaved PARP positive nuclei fraction": 94.3},
      {"smiles": "Cn1cc(C2=C(c3cn(C4CCN(Cc5ccccn5)CC4)c4ccccc34)C(=O)NC2=O)c2ccccc21", "note": "[Enzastaurin] + C=CCNC1=C2C[C@@H](C)C[C@H](OC)[C@H](O)[C@@H](C)/C=C(\\C)[C@H](OC(N)=O)[C@@H](OC)/C=C\\C=C(/C)C(=O)NC(=CC1=O)C2=O [Tanespimycin] (first compound 0.8 µM, partner dose 0.002 µM)", "cleaved PARP positive nuclei fraction": 92.4},
      {"smiles": "CS(=O)(=O)c1ccc(C(=O)Nc2ccc(Cl)c(-c3ccccn3)c2)c(Cl)c1", "note": "[vismodegib] + C[As](C)SC[C@H](NC(=O)CC[C@H](N)C(=O)O)C(=O)NCC(=O)O [Darinaparsin] (first compound 1 µM, partner dose 0.4 µM)", "cleaved PARP positive nuclei fraction": 74},
      {"smiles": "CS(=O)(=O)c1ccc(C(=O)Nc2ccc(Cl)c(-c3ccccn3)c2)c(Cl)c1", "note": "[vismodegib] + N.N.[Cl][Pt][Cl] [cisplatin] (first compound 1 µM, partner dose 1.6 µM)", "cleaved PARP positive nuclei fraction": 116},
      {"smiles": "CCCS(=O)(=O)Nc1ccc(F)c(C(=O)c2c[nH]c3ncc(Cl)cc23)c1F", "note": "+ C[As](C)SC[C@H](NC(=O)CC[C@H](N)C(=O)O)C(=O)NCC(=O)O [Darinaparsin] (first compound 0.08 µM, partner dose 0.4 µM)", "cleaved PARP positive nuclei fraction": 46.1},
      {"smiles": "C[C@]12O[C@H](C[C@]1(O)CO)n1c3ccccc3c3c4c(c5c6ccccc6n2c5c31)CNC4=O", "note": "[Lestaurtinib] + C=CCNC1=C2C[C@@H](C)C[C@H](OC)[C@H](O)[C@@H](C)/C=C(\\C)[C@H](OC(N)=O)[C@@H](OC)/C=C\\C=C(/C)C(=O)NC(=CC1=O)C2=O [Tanespimycin] (first compound 0.004 µM, partner dose 0.002 µM)", "cleaved PARP positive nuclei fraction": 104},
      {"smiles": "C[C@]12O[C@H](C[C@]1(O)CO)n1c3ccccc3c3c4c(c5c6ccccc6n2c5c31)CNC4=O", "note": "[Lestaurtinib] + O=C(O)[C@@H]1[O][Sb](=[O])([O][Sb]2(=[O])[O][C@H]([C@H](O)CO)[C@H](O)[C@H](C(=O)O)[O]2)[O][C@H]([C@H](O)CO)[C@@H]1O [stibogluconate] (first compound 0.004 µM, partner dose 2 µM)", "cleaved PARP positive nuclei fraction": 96.1},
      {"smiles": "Cn1cc(C2=C(c3cn(C4CCN(Cc5ccccn5)CC4)c4ccccc34)C(=O)NC2=O)c2ccccc21", "note": "[Enzastaurin] + C=C(c1ccc(C(=O)O)cc1)c1cc2c(cc1C)C(C)(C)CCC2(C)C [Bexarotene] (first compound 0.8 µM, partner dose 2 µM)", "cleaved PARP positive nuclei fraction": 129}
    ]}
  ]
}
